The nature of this data set: general procedure: peptide synthesis; EDC / N-hydroxysuccinimide. The settings on record: cyclisation step, on linear precursor.

For the substance cyclo(SGGYLPPL), the cyclisation yield amounted to 80%.

(Values after patent US7846710B2 (The Penn State Research Foundation, priority 1998, dated 2010).)
